Test results as given in PubChem BioAssay AID540256 (National Center for Advancing Translational Sciences (NCATS), 2011).
The whole screen tested about 300,000 compounds, of which about 3,700 (1.2%) were called active. The inconclusive results got no clear call from the source; some entries with a clear call stand among them for comparison. The call rests on the fitted dose curve; tested in HEK293 cells. Potencies of inconclusive entries are doubtful fits and often do not repeat.

Assay: qHTS for Inhibitors of binding or entry into cells for Lassa Virus; further: nearly all actives have a fitted effect of over 50% in size
Details: Lassa virus pseudotype entry inhibition, cell reporter; series mostly up to 37.9 µM
Potency means the concentration at half of the fitted maximal effect.

| SMILES | Potency |
| --- | --- |
| CC(Sc1nc2c(c(=O)[nH]1)CCCC2)C(=O)Nc1cc(C(F)(F)F)ccc1Cl (centres undefined) | inconclusive: 31.6 µM [activator, partial curve, poor fit] |
| O=C(Nc1ccc(N2CCOCC2)c(Cl)c1)c1cccc(F)c1 | inconclusive: 11.2 µM [inhibitor, partial curve, poor fit] |
| CCCC(C)C1(CC)C(=O)NC(=O)N=C1N (centres undefined) | inconclusive: 14.6 µM [activator, partial curve, poor fit] |
| Cc1cc(NC(=O)CCC(=O)N(c2ccc(F)cc2)C2(C(=O)NC3CCCCC3)CCCC2)no1 | inactive |
| Cc1cccc(C(=O)NCCc2nc3ccccc3n2Cc2ccc(Cl)cc2)c1 | inactive |
| Cc1cc(C)c(C#N)c(SCc2ccccc2[N+](=O)[O-])n1 | inactive |
| Cc1ccc(C=Nc2ccccc2C(N)=O)cc1 | inconclusive: 2.06 µM [inhibitor, full curve] |
| CSCCC(NC(=O)c1ccc([N+](=O)[O-])cc1Cl)C(=O)OCC(=O)NCC(F)(F)F (centres undefined) | inconclusive: 11.2 µM [inhibitor, single point] |
| CCOC(=O)c1ccc2nc(C)cc(Nc3ccc(OC(C)C)cc3)c2c1 | inconclusive: 3.98 µM [inhibitor, partial curve, poor fit] |
| O=C(CN1CC[n+]2c(-c3cccs3)csc21)c1ccc(-c2ccccc2)cc1 | inconclusive: 2.51 µM [inhibitor, full curve, poor fit] |
| Cc1ccc(-n2cnc3cc(C(=O)NCc4ccc(F)cc4)ccc32)c(C)c1 | inconclusive: 3.55 µM [inhibitor, full curve] |
| Cc1cc(/C=N/n2c(COc3ccccc3)nc3ccccc3c2=O)c(O)c([N+](=O)[O-])c1 | inconclusive: 35.5 µM [inhibitor, single point] |
| CCOC(=O)N(Cc1ccccc1)Cc1ccc(C(=O)N[C@@H](Cc2ccccc2)C(=O)O)cc1 | inconclusive: 35.5 µM [inhibitor, single point] |
| Cc1ccccc1NC(=O)COC(=O)c1ccc(CSc2ccc(Cl)cc2)cc1 | inconclusive: 8.2 µM [activator, partial curve, poor fit] |
| CCOC(=O)c1ccc(N2C(=O)c3n[nH]c(-c4cccs4)c3C2c2ccc(CC)cc2)cc1 (centres undefined) | inconclusive: 10 µM [inhibitor, partial curve, poor fit] |
| CC(CCc1ccccc1)NC(C)C(O)c1ccc(O)cc1 (centres undefined) | inactive |
| CCCCN(CCCNC(=O)c1cc(Nc2ccc(OC)cc2)nc2ccccc12)Cc1ccccc1 | inactive |
| CC(C)(C)NC(=O)CN(C(=O)c1snc(C(=O)NC2CCCCC2)c1N)c1ccccc1F | inactive |
| COc1ccc(-n2cc(-c3ccc4c(c3)OCO4)n(CC(=O)Nc3cccc(C)c3C)c2=O)c(OC)c1 | inconclusive: 7.08 µM [inhibitor, full curve, poor fit] |
| Cc1cccc(Nc2nnc(SCC(=O)Nc3ccc(C(=O)O)cc3)s2)c1 | inconclusive: 10 µM [inhibitor, partial curve] |
| CCOC(=O)C(CC)n1nc(C)c2c(C)n(-c3ccc(C)cc3)nc2c1=O (centres undefined) | inactive |
| O=C(N/N=C/c1c(O)n(Cc2ccc(F)cc2)c(=O)[nH]c1=O)c1ccccc1O | inactive |
| Clc1ccc(-n2nnnc2SCc2cn3ccccc3n2)cc1 | inactive |

| SMILES | Potency |
| --- | --- |
| COc1ccc(-c2cc(N3C(=O)Nc4ccccc4N3O)n[nH]2)cc1OC | inconclusive: 2.51 µM [inhibitor, single point] |
| COc1cccc(C(C)=C2SC(=S)NC2=O)c1 | inactive |
| COc1ccc(/C(C)=N/NC(=O)c2ccccc2OCc2ccccc2)c(OC)c1 | inactive |
| COCCCNC(=O)C(=O)Nc1ccc2c(c1)N(S(=O)(=O)c1cccs1)CCC2 | inconclusive: 0.501 µM [inhibitor, full curve, poor fit] |
| Cc1ccc(S(=O)(=O)N(CC(=O)NCCSCc2ccco2)c2cc(C)ccc2C)cc1 | inconclusive: 15.8 µM [inhibitor, single point] |
| Cn1c(OCc2cccnc2)nc2c1c(=O)n(Cc1ccc(Cl)cc1)c(=O)n2C | active: 16.4 µM |
| CCCCc1c(C)nc2c(-c3ccc(Cl)cc3)c(C)[nH]n2c1=O | inactive |
| CC(O)CN(C)CC/C=C1/c2ccccc2CSc2ccccc21 (centres undefined) | inconclusive: 20.6 µM [inhibitor, single point] |
| CC1=CC[C@@H](COc2ccccc2)O[C@@]2(C1)C(=O)Nc1cccc(Br)c12 | inconclusive: 0.0038 µM [activator, full curve, poor fit] |
| CSc1ccc(C(c2c(C)[nH][nH]c2=O)c2c(C)[nH][nH]c2=O)cc1 | inactive |
| CCN(CC)c1ccc2c(O)cc(=O)oc2c1 | inactive |
| CCOc1ccc(C(C(=O)NC2CCCC2)N(C(=O)c2snc(C(N)=O)c2N)C2CCCC2)cc1 (centres undefined) | inconclusive: 28.2 µM [inhibitor, partial curve, poor fit] |
| CCOC(=O)c1c(NC(=O)/C=C/c2ccc(C)cc2)sc(C(C)=O)c1C | inconclusive: 3.55 µM [activator, single point] |
| CCOC(=O)C(O)(c1ccc(N(CC)C(=O)OC)cc1)C(F)(F)F (centres undefined) | inconclusive: 29.1 µM [inhibitor, single point] |
| CCOC(=O)C1=C(O)CSC1=Nc1ccccc1 | inactive |
| CCOC(=O)C1(NC(=O)CN2C(=O)c3ccccc3C2=O)CCCC1 | inconclusive: 6.31 µM [inhibitor, single point] |
| COc1ccc(CC(=O)Nn2c(-c3ccccc3)nc3ccccc3c2=O)cc1 | inconclusive: 25.9 µM [activator, single point] |
| O=C(CCNS(=O)(=O)c1cccs1)N1CCCCCC1 | inactive |
| Cc1cc(N2CCCCC2)nc(NCc2ccccc2)n1 | inconclusive: 25.1 µM [inhibitor, partial curve, poor fit] |
| CCOc1ccccc1NC(=O)c1cccc(NC(=O)c2ccco2)c1 | inconclusive: 2 µM [inhibitor, partial curve, poor fit] |
| CCOc1ccccc1NC(=O)CSc1nnc(CNC(=O)c2cc(OC)c(OC)c(OC)c2)o1 | inactive |
| O=C(N/N=C/c1cccnc1)c1ccc(O)cc1 | inconclusive: 1.78 µM [activator, full curve, poor fit] |
| CCOC(=O)c1sc(NC(=O)Cn2nnc3sc4c(c3c2=O)CCCC4)nc1C | inconclusive: 6.51 µM [activator, partial curve, poor fit] |

| SMILES | Potency |
| --- | --- |
| Cc1cc(C)nc(SCC2COc3ccccc3O2)n1 (centres undefined) | inactive |
| O=S1(=O)CCC(NC(=S)Nc2ccccc2)C1 (centres undefined) | inactive |
| C=CCC1(CC=C)CCCN1C(=O)c1cc(COc2cccc(C(F)(F)F)c2)on1 | inconclusive: 1.26 µM [activator, single point] |
| Cc1ccccc1-n1nc(CO)c(C(=O)NCC(c2ccccc2)c2ccccc2)n1 | inconclusive: 2.51 µM [inhibitor, full curve] |
| CCN(C(=O)COc1ccc(C(=O)c2ccccc2)cc1)c1ccccc1 | inconclusive: 15.8 µM [inhibitor, partial curve, poor fit] |
| CC(=O)C1=C(c2ccc(Cl)c(Cl)c2)N(C(C)=O)n2c(nnc2-c2ccccc2)S1 | inconclusive: 0.562 µM [inhibitor, full curve, poor fit] |
| Cc1cc(C(=O)COC(=O)c2ccc3c(c2)NC(=O)CS3)c(C)n1CC1CCCO1 (centres undefined) | inactive |
| CCNc1nc(NCC)n2c(SCC(=O)Nc3cccc(Cl)c3)nnc2n1 | inconclusive: 28.2 µM [inhibitor, partial curve, poor fit] |
| Cc1ccc(NC(=O)CNc2ccc(Cl)c(Cl)c2)cc1S(=O)(=O)N(C)C | inconclusive: 12.6 µM [inhibitor, partial curve, poor fit] |
| NC(=O)N=Nc1c2[nH]c3ccccc3nc-2c2ccccc12 | inconclusive: 8.91 µM [inhibitor, partial curve, poor fit] |
| Cc1cccc(CN2CCCC(C(=O)Nc3ccc(-c4cscn4)cc3)C2)c1 (centres undefined) | inconclusive: 25.1 µM [inhibitor, single point] |
| CCOC(=O)c1c(C)[nH]c2cc(Br)c(OC)cc12 | inactive |
| CCOc1ccc(NC(=O)c2ccc(-c3cccc(Cl)c3C)o2)cc1 | inactive |
| Cc1cccc(-n2ncc3c2CCCC3NC(=O)C2(C(N)=O)CC2)c1C (centres undefined) | inconclusive: 5.62 µM [inhibitor, partial curve, poor fit] |
| COc1cc(C2/C(=C(\O)c3ccc4c(c3)CC(C)O4)C(=O)C(=O)N2CCCn2ccnc2)cc(OC)c1OC (centres undefined) | inactive |
| O=C(Nc1ccc(NC(=O)c2ccco2)nc1)c1ccccn1 | inconclusive: 1 µM [activator, single point] |
| COc1ccc(CNC(=O)CN2C(=O)NC3(CCCCCCC3)C2=O)cc1 | inconclusive: 35.5 µM [inhibitor, single point] |
| COc1ccccc1CNC(=O)C1CCC(CNS(=O)(=O)c2ccc(F)cc2)CC1 (centres undefined) | inactive |
| CCOC(=O)c1c(-c2ccc(-c3ccccc3)cc2)csc1NC(=O)C1C2CCC(O2)C1C(=O)O (centres undefined) | inconclusive: 31.6 µM [inhibitor, single point] |
| COc1ccc2nc(Nc3nc(-c4ccncc4)cs3)sc2c1 | inactive |
| COc1ccc(-n2cc(C(=O)NC(C)c3ccccc3)c3ccccc3c2=O)cc1 (centres undefined) | inactive |
| OC[C@H](O)[C@H](O)[C@@H](O)[C@@H](O)[C@@H]1SC(c2ccccc2)=NN1c1ccccc1 | inactive |
| CC(NC(=O)c1ccc(N(C)C)c([N+](=O)[O-])c1)c1ccc(-n2ccnc2)cc1 (centres undefined) | inconclusive: 35.5 µM [inhibitor, partial curve, poor fit] |

Individual results from above.
Value of CC(NC(=O)c1ccc(N(C)C)c([N+](=O)[O-])c1)c1ccc(-n2ccnc2)cc1 (centres undefined) under Potency: inconclusive: 35.5 µM [inhibitor, partial curve, poor fit]
Value of C=CCC1(CC=C)CCCN1C(=O)c1cc(COc2cccc(C(F)(F)F)c2)on1 under Potency: inconclusive: 1.26 µM [activator, single point]
Value of COc1ccc(CNC(=O)CN2C(=O)NC3(CCCCCCC3)C2=O)cc1 under Potency: inconclusive: 35.5 µM [inhibitor, single point]
